This test has as its target Myc-BUBR1 ΔPhe + ΔD2 (full length) (human) (UniProt O60566). The experiment in a line: co-IP; 293FT cells transfected with GFP-AP2B1 and Myc-BUBR1 plasmids; anti-Myc-BUBR1 IP from total cell lysate, blotted with anti-Myc and anti-AP2B1 or anti-GFP.

Protein sequences, listed by entry. Tags and fused reporters are not part of them. Lines headed by an entry give the natural chain unless they say otherwise; changes in a name come on top.
UniProt O60566: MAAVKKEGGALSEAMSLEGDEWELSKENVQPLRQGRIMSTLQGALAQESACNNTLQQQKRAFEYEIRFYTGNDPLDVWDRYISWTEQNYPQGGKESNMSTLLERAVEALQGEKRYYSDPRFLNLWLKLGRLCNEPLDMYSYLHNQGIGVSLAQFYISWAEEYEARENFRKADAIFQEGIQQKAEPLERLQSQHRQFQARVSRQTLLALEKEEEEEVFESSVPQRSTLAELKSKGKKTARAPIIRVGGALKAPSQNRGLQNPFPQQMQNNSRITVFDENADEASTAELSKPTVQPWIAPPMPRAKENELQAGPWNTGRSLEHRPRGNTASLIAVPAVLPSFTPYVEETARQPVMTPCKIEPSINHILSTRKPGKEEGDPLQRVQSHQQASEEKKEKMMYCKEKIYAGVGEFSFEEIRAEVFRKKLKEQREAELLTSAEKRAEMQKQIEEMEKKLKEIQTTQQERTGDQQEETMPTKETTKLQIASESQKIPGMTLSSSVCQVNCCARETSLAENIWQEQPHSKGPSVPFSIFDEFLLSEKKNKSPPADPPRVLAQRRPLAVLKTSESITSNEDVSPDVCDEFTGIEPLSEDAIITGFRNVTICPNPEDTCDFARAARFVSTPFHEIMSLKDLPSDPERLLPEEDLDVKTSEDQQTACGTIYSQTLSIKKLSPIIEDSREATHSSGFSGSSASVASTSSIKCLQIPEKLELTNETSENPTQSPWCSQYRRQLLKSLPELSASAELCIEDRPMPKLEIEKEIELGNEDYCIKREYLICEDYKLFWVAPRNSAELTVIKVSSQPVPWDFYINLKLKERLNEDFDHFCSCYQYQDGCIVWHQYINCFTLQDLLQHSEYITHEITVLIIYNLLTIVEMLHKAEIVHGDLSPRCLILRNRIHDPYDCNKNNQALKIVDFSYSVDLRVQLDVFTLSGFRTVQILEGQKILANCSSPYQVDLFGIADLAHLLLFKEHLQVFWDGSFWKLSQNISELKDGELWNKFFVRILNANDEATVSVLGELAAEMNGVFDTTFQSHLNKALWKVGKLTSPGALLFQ
UniProt P63010: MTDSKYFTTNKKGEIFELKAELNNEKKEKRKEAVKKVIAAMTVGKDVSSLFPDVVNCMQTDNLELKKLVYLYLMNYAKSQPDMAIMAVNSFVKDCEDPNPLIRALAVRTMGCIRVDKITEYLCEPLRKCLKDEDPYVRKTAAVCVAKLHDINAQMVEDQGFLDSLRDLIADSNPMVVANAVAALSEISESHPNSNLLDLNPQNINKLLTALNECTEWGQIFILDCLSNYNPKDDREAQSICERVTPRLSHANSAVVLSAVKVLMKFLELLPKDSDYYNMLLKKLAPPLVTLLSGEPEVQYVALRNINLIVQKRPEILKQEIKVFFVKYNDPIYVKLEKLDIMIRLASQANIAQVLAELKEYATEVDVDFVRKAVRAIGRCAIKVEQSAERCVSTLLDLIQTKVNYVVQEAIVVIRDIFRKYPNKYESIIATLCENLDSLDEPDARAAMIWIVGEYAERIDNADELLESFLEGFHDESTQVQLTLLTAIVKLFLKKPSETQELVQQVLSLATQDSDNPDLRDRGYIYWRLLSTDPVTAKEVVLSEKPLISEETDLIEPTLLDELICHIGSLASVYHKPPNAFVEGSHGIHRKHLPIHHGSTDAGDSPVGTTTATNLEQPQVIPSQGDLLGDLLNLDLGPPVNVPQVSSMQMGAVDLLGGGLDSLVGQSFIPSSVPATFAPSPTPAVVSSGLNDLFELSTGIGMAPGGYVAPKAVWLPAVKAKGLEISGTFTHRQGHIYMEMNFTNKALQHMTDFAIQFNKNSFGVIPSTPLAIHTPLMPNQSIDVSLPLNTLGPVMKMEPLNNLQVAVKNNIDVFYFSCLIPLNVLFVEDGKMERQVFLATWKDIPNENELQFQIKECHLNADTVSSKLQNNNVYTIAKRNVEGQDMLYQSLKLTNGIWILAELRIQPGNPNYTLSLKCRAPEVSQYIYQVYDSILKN

Results are given in words; binding and its absence hold for the method and conditions named. In cells and extracts the contact can be indirect. Binding can be weak; no strength is given.

Take “GFP-AP2B1 full length (FL) (from UniProt P63010 1-937)”: the binding entry is recorded as “binds”.

The values are drawn from PMC6443781.
